# Data published in the supplement of paper PMC12067093, “Discovery and optimisation of a covalent ligand for TRIM25 and its application to targeted protein ubiquitination” (Chemical Science, 2025).
# Chains of the proteins cited; added tags and fusions are not shown. Lines headed by an entry give the natural chain unless they say otherwise; changes in a name come on top.
# UniProt P20933: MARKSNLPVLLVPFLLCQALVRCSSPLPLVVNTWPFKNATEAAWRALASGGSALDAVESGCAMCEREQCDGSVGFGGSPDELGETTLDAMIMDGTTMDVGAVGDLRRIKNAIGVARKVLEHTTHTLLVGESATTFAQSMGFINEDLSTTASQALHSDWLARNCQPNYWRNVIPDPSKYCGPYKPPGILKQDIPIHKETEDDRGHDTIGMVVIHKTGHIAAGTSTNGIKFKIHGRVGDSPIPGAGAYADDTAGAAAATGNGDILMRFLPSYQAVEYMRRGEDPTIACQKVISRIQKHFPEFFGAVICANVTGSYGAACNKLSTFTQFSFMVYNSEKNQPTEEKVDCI
# UniProt Q53H12: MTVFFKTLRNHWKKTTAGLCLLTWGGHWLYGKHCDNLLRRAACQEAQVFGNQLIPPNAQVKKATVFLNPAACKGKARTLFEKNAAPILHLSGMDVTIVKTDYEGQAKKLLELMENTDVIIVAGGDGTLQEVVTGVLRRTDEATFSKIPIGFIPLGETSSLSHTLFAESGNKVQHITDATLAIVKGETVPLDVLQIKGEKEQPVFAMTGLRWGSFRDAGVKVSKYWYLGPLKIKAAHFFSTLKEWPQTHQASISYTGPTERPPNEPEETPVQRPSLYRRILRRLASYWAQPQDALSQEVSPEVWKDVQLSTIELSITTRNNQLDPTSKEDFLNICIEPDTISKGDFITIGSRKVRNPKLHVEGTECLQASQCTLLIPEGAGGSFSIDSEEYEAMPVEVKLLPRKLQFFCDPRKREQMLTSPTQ
# UniProt P51826: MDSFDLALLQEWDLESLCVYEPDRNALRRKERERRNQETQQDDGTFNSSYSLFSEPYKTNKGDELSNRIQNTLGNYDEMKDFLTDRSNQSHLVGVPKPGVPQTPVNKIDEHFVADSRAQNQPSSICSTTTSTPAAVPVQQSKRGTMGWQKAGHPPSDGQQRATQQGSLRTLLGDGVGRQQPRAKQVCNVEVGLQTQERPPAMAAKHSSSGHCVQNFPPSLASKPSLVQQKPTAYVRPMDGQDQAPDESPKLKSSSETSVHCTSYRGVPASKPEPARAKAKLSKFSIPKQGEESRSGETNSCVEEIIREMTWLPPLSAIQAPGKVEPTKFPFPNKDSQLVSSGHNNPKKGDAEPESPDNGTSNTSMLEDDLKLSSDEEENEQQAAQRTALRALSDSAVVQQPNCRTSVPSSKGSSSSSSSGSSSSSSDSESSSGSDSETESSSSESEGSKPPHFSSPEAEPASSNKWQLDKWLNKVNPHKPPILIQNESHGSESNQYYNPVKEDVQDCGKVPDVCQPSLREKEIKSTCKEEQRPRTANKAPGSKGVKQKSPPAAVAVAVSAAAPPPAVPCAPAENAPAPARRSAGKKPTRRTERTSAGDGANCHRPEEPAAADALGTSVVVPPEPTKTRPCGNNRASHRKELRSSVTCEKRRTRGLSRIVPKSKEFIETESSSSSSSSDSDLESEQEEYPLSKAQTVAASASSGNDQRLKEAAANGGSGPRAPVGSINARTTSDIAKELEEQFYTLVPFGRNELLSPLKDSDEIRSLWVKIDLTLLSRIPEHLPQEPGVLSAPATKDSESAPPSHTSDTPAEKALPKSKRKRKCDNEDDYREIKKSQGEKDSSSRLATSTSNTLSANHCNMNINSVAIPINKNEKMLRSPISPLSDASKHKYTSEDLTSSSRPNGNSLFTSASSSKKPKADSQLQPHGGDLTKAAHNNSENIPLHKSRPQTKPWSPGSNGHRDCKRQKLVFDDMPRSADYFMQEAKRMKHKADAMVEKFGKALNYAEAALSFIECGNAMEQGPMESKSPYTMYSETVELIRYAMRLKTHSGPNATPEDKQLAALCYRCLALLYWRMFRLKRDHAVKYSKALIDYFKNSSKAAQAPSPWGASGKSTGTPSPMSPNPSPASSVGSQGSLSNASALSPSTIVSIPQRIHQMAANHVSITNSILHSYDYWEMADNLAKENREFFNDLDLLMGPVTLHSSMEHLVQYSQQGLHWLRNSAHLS
# UniProt P78536: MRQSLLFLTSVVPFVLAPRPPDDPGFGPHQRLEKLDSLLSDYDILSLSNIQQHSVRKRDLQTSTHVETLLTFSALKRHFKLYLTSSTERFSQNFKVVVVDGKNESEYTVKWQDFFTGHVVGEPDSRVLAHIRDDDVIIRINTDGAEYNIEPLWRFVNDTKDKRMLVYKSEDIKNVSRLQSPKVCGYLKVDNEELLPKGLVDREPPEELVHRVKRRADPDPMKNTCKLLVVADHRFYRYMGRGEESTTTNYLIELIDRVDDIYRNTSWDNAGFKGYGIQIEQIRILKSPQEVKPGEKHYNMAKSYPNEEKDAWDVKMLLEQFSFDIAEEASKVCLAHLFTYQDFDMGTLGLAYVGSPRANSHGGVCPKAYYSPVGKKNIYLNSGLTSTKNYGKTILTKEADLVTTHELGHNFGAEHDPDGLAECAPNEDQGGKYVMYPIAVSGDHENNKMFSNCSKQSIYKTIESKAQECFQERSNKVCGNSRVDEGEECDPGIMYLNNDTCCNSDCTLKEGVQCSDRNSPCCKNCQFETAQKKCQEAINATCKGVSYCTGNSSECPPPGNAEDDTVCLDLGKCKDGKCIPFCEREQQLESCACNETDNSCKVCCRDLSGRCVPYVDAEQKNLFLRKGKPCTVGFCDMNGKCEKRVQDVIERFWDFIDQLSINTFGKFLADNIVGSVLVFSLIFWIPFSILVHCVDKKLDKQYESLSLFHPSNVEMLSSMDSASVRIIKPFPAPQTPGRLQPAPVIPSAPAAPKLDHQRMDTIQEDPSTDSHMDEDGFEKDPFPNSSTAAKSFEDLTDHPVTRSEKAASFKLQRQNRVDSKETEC
# UniProt Q9Y4W6: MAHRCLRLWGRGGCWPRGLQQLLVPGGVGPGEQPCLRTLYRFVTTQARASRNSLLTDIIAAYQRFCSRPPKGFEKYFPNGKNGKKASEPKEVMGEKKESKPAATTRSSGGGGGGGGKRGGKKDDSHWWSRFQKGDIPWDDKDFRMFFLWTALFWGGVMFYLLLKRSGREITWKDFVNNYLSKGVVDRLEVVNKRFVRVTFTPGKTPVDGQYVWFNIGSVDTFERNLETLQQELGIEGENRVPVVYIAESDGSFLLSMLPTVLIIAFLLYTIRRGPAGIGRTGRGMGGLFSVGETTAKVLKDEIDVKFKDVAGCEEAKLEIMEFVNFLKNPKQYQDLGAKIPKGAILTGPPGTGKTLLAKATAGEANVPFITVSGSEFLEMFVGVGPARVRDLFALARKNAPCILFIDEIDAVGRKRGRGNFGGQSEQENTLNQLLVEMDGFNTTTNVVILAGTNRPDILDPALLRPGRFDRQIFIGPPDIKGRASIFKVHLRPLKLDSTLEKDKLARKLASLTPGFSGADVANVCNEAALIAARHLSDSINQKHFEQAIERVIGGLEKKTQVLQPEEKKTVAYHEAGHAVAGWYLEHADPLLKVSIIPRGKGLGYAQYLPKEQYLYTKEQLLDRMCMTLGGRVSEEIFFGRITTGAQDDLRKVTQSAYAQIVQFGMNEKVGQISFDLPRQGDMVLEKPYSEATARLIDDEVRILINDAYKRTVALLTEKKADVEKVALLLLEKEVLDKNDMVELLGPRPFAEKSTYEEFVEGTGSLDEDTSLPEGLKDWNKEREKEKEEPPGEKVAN
# UniProt O14672: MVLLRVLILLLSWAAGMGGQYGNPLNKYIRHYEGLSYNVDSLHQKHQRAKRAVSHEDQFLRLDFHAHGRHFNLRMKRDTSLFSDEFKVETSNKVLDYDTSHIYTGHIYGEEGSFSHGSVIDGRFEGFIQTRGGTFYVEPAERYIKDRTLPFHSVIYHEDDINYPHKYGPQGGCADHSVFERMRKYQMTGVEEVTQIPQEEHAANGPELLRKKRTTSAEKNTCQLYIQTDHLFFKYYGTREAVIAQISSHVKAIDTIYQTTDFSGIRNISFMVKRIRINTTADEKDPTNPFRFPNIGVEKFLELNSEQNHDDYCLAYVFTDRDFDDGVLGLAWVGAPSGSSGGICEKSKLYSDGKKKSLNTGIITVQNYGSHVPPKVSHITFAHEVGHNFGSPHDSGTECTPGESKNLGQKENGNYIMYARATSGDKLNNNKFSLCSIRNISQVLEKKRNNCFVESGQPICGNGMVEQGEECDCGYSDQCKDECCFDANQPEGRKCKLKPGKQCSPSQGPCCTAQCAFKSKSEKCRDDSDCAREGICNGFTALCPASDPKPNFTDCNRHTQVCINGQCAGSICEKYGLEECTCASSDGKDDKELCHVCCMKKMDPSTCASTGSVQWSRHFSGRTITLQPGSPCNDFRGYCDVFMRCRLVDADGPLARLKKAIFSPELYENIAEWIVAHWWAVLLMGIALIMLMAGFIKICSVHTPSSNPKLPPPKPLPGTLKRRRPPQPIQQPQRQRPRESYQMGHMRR
# UniProt Q96EY9: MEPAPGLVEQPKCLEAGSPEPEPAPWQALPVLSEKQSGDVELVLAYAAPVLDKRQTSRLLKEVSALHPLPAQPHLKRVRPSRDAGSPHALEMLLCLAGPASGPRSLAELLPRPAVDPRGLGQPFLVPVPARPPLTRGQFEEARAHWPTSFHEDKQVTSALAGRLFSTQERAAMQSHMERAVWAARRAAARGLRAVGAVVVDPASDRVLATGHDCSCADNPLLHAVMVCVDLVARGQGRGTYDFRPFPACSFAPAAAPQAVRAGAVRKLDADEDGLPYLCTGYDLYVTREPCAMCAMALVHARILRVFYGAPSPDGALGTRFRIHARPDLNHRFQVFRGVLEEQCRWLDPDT
# UniProt O95573: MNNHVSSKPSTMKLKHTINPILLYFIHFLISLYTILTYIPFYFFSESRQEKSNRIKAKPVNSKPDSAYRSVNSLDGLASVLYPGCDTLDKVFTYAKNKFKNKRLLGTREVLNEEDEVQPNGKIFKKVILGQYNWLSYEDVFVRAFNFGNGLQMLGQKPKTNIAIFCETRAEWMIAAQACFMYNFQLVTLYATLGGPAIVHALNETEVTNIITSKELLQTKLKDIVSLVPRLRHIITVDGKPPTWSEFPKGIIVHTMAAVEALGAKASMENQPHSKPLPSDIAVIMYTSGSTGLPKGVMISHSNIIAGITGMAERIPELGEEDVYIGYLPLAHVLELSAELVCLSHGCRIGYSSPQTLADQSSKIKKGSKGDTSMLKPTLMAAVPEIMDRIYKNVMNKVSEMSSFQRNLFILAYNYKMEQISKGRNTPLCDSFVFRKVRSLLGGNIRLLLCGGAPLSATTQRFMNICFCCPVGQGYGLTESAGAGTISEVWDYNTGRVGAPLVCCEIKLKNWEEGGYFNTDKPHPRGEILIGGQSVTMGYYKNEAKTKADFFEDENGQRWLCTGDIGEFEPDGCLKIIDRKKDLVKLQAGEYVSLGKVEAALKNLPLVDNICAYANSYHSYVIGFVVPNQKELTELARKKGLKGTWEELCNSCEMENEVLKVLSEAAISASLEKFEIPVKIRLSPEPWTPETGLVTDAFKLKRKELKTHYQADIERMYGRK
# UniProt Q6IQ32: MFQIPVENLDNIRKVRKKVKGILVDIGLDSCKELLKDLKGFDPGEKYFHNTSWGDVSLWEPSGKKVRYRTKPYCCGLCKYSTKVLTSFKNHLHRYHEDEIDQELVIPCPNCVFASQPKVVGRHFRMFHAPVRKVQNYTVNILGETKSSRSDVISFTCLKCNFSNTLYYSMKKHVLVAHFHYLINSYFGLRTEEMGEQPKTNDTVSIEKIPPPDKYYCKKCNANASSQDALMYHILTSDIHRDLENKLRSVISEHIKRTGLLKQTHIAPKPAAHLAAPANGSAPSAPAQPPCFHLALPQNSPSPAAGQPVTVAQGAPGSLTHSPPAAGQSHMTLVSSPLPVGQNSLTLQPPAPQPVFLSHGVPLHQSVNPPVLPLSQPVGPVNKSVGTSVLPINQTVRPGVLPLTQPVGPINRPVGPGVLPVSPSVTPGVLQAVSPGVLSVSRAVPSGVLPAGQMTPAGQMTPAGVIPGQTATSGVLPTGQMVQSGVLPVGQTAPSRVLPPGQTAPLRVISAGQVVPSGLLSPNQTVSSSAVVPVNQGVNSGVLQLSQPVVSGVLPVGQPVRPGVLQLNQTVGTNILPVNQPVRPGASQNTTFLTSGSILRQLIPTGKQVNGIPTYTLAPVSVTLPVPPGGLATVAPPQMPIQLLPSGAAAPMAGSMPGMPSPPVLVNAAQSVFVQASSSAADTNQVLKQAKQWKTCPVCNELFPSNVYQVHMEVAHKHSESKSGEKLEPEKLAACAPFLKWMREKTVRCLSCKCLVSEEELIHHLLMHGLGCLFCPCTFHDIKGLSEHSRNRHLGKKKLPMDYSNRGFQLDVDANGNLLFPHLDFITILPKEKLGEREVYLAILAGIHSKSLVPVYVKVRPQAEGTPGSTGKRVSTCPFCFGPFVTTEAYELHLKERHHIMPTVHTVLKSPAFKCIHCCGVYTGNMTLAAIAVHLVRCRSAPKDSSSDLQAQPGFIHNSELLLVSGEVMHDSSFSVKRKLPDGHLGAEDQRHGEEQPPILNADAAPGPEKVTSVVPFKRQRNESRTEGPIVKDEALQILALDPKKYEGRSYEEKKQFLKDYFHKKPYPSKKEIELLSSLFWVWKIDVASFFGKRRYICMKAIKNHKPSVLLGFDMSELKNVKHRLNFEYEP
# This is one part of the list.
# Compound: Cc1cc(ccc1-c1ccccc1)C(=O)N1CCCN(CC1)C(=O)CCl [compound 10]
# Test: probe-labelled cysteine peptide fold change vs DMSO (competition) (log2 fold change); higher = less target engagement (more negative = stronger competition)
# Conditions: 10 µM; THP-1; incubation time: 4 h
# 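Note: competitive profiling in live THP-1 cells: cysteine peptides tagged with an iodoacetamide desthiobiotin (IA-DTB) probe, intensity after compound treatment relative to DMSO-treated cells.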
row,Target,probe-labelled cysteine peptide fold change
1,ADK_P55263_140+143_AAEAHVDAHYYEQNEQPTGTCAACITGDNR (UniProt P55263),-0.278
2,AGA_P20933_163_NCQPNYWR (UniProt P20933),-0.21
3,ACSF2_Q96CM8_254_QHLDQLQYNQQFLSCHDPINIQFTSGTTGSPK (UniProt Q96CM8),-0.144
4,AGK_Q53H12_72_ATVFLNPAACK (UniProt Q53H12),0.0964
5,AFF3_P51826_630_TRPCGNNR (UniProt P51826),0.00478
6,ADSL_P30566_180_CCLWIQDLCMDLQNLK (UniProt P30566),-0.0411
7,ADAM17_P78536_365_ANSHGGVCPK (UniProt P78536),0.08
8,ADO_Q96SZ5_239_EASSSACDLPR (UniProt Q96SZ5),-0.271
9,AGK_Q53H12_72_KATVFLNPAACK (UniProt Q53H12),-0.0296
10,ACTR8_Q9H981_179_WTNTSHHPEYLVGEEALYVNPLDCYNIHWPIRR (UniProt Q9H981),0.218
11,AFG3L2_Q9Y4W6_402_KNAPCILFIDEIDAVGR (UniProt Q9Y4W6),-0.0536
12,AFG3L2_Q9Y4W6_313_DVAGCEEAKLEIMEFVNFLK (UniProt Q9Y4W6),-0.324
13,ADAM10_O14672_222_NTCQLYIQTDHLFFK (UniProt O14672),0.033
14,ADK_P55263_140_AAEAHVDAHYYEQNEQPTGTCAACITGDNR (UniProt P55263),-0.06
15,ADCY9_O60503_654_SEAGAEGGAPQNGCQDEHK (UniProt O60503),-0.197
16,ACTR3_P61158_8+12_LPACVVDCGTGYTK (UniProt P61158),-0.243
17,ADCY3_O60266_479_CDYLEEK (UniProt O60266),-0.234
18,ADAT3_Q96EY9_95_DAGSPHALEMLLCLAGPASGPR (UniProt Q96EY9),0.15
19,ACTR6_Q9GZN1_210_EDVCYVSQDFYR (UniProt Q9GZN1),-0.0424

row,Target,probe-labelled cysteine peptide fold change
1,ADD1_P35611_253_CGLLPISPEALSLGEVAYHDYHGILVDEEEK (UniProt P35611),0.0833
2,AFF3_P51826_301_SGETNSCVEEIIR (UniProt P51826),-0.248
3,ACSL3_O95573_450_LLLCGGAPLSATTQR (UniProt O95573),-0.0957
4,ADNP2_Q6IQ32_220_CNANASSQDALMYHILTSDIHR (UniProt Q6IQ32),0.0714
5,ADAM17_P78536_184_VCGYLK (UniProt P78536),0.0974
6,ADAM10_O14672_173_YGPQGGCADHSVFER (UniProt O14672),-0.129
7,AGO2_Q9UKV8_272_VEITHCGQMK (UniProt Q9UKV8),-0.0568
8,ADNP_Q9H2P0_452_ICTICNELFPENVYSVHFEK (UniProt Q9H2P0),-0.157
9,ACP1_P24666_146_QLIIEDPYYGNDSDFETVYQQCVR (UniProt P24666),0.133
10,AFF1_P51825_355_MPSQSVEQTYSNEVHCVEEILK (UniProt P51825),-0.261
11,ACOX1_Q15067_199_CYGLHAFIVPIR (UniProt Q15067),-0.306
12,AGA_P20933_64_ALASGGSALDAVESGCAMCER (UniProt P20933),-0.106
13,ACTR3_P61158_235_YSYVCPDLVK (UniProt P61158),-0.059
14,ADGRL3_Q9HAR2_36_RELSCESYPIELR (UniProt Q9HAR2),-0.248
15,ACSL3_O95573_652_GTWEELCNSCEMENEVLK (UniProt O95573),-0.15
16,ADD2_P35612_224_CIIHLHTPATAAVSAMK (UniProt P35612),0.107
17,ADAR_P55265_125_GVDCLSSHFQELSIYQDQEQR (UniProt P55265),-0.101
18,ACTR2_P61160_11_KVVVCDNGTGFVK (UniProt P61160),-0.129
